Results: the supplement of paper PMC3334620
Over roughly 33,000 sequences, “E-score (-0.5 to 0.5)” has its median near -0.0059; the highest 2% begin near 0.26. The list shows a part of the results.

target: T1, Cin5 (UniProt P40917); test: PBM E-score (8-mer binding enrichment) (E-score (-0.5 to 0.5)); higher = stronger / more preferred TF binding; settings: protein concentration: 100 nM; construct: GST-full length
T1 sequence: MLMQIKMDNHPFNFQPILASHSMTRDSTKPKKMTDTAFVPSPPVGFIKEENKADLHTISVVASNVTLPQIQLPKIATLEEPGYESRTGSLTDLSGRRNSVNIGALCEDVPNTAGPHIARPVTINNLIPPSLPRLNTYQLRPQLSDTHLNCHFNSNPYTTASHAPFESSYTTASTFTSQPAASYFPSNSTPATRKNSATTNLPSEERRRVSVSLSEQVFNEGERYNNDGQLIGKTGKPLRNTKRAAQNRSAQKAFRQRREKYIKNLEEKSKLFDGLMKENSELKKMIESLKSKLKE
Procedure: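 Universal 'all 10-mer' protein binding microarrays (Agilent AMADID 015681) probed with GST-tagged S. cerevisiae TFs (full-length or DBD) made by in vitro transcription/translation (PURExpress), about 100-200 nM. Bound TF was detected with fluorescent anti-GST. Each ungapped 8-mer (which stands for itself and its reverse complement) is scored by the PBM enrichment score (E-score), a modified Wilcoxon-Mann-Whitney statistic from -0.5 to +0.5, computed with the Universal PBM Analysis Suite. Scale: above 0.35 generally sequence-specific binding.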

Sequence	PBM E-score
ACTGTCAA	-0.0196
ATGGTGCA	-0.0439
CTTGAGTC	-0.136
ATAGAGCG	0.0283
ACTTCTCT	-0.0899
CTGACTTA	0.298
AATTGCCC	0.082
AGCAGGCT	-0.218
CCAGAACG	-0.0604
ACCGGTCA	-0.0331
ATCGCCCG	-0.0759
GTACGCAC	-0.12
GAGTCCAA	-0.00014
CCATCGTC	0.0447
CACTGGTA	0.0077
AATAGAAT	0.106
GGTACACC	-0.181
ATCACTAG	0.0603
CAACAGAC	-0.0114
TGACGGCA	-0.102
AATGTACT	0.208
CTAGTCCC	-0.149
CAGAAAAC	0.131
ACGGCTCG	0.0234
GTCAACAC	0.0351

Sequence	PBM E-score
CAGCTGTA	-0.174
TATTCGAA	0.0697
CACCGGTA	-0.123
ATCGGTGA	0.103
CACATTCG	0.0747
ATTACCGA	0.138
AGTCCACG	-0.176
AGATTATC	0.0833
AATGCTCA	0.0368
CTCCCTAA	-0.261
CCGTTATC	0.00955
AGCGAAGG	0.0557
GACGGAGC	-0.144
ACAATCAA	0.109
CCCTAGCG	-0.344
AAATGATG	0.207
AACGACAA	0.114
CCGCTTTA	-0.0452
GCCCGAAA	0.0994
ATAGATTA	0.302
CATCGCAG	-0.0752
GCCGTCCA	0.0294
AGACGCTG	-0.0713
GGGTGTTA	-0.0098
ATGACCGC	-0.0622

Sequence	PBM E-score
CTTTCCGA	0.0435
CGCGAACA	0.0739
AATTGCTC	-0.0353
ACTGATCA	0.17
ATGCAACG	-0.0472
AGGTATGA	0.128
ACAACGTC	-0.0665
GGCTTCCA	-0.192
ATGATAAC	0.262
GATGAGCC	-0.103
GGATTCCA	0.151
CACGGGTC	-0.167
CGCCCCTC	-0.173
ATCACATA	0.291
CACCATGA	-0.0418
CAGATCTA	-0.164
GACGGTAC	-0.0824
ATGCATAG	-0.086
CGCTAAGA	-0.104
GCGTAAGC	0.227
CCGTGTAG	0.00318
CAGCTATA	0.138
CGAATCAA	0.243
CGCGTGCA	-0.164
CTCAGTCC	-0.138

Sequence	PBM E-score
CAACCATA	0.153
CCTTGCCA	-0.0988
ATACTAAG	0.012
GAATTCCC	-0.0812
CCGAGAAA	0.198
ATGCTGCC	-0.00436
ACTAGCAG	-0.0148
CTGTAGTC	-0.017
AGCTCTAC	-0.0194
AGGGTCAA	0.134
CCAGCAGC	-0.116
GGTAATAC	0.168
ATAAGTTA	0.186
GTCGTAAC	-0.107
AGCCCTTA	-0.185
ACCGATAA	0.123
GAAGCGCA	0.00479
GCCTCTAC	-0.247
ATAAAAGC	0.127
TTACCAAA	0.223
AGTGGTTC	-0.0524
GATGAGGC	-0.153
ACGTCAGT	-0.12
GACGTATA	-0.035
CACGCCAA	-0.0595

Sequence	PBM E-score
CACGTCGG	-0.18
CAATCGGA	0.157
CCTGTACG	-0.161
AGTGTCGG	-0.0423
CAGGCAGG	-0.124
GCCCGCGC	-0.0109
AATCGTCA	0.0536
ACCGTAGG	-0.362
CACCCCTG	-0.126
CGGCGACG	-0.0819
CGCGTTAA	0.00016
CCTATCCG	-0.0857
AATCGTGA	0.00493
AGAAAAGG	0.00134
ATAAACGG	0.11
GATGATAC	0.103
TACATACA	0.238
GCTAATAA	0.0536
ACGTTTTG	0.0665
CGCGGTTA	0.0553
GTCTAAAA	-0.162
CCGGTGAG	-0.0175
GGCGAGCA	-0.0499
GGATTGCA	0.0742
AAAGGTGA	-0.0471

For convenience, some entries already given.
Sequence	PBM E-score
ATGATAAC	0.262
GATGAGCC	-0.103

(cont.)

Sequence	PBM E-score
GGGAGATA	-0.0684
AGAGAATC	0.0813
CGAACACA	0.102
CCGATCGC	-0.101
TCATCGAA	0.0464
AGTATGAT	0.203
AGGCACCT	-0.218
AATCTGCT	-0.0109
AGGTTGCC	-0.129
CTCAATCA	0.0973
CCTGGCCC	-0.257
ACGTAACG	0.214
CTAAGTAA	0.0623
AGCGCAAG	-0.0811
AGTGGGTC	-0.255
CTCCGTCA	-0.139
GGTGCCAC	-0.227
TAATGATA	0.298
AAAATGAT	0.256
ACGCTCTA	-0.159
CTTTCCCA	-0.115
CGCTGCGA	0.0622
AGCGTAAC	0.145
GACGAGTC	-0.158
CCGTTACG	0.0353

Sequence	PBM E-score
AAAGTTGG	0.114
ACGCCGAT	-0.0769
GAGCGTAA	0.202
AGCCAACT	-0.0647
AACTGATT	0.124
GGAAGACC	-0.236
GCAAAGGC	-0.21
CACATAAG	0.109
AGTATACT	-0.068
CACCGGGA	-0.0974
ATTAGAAA	-0.0685
CATTTAGC	-0.00673
GTAGAAGA	-0.121
AATACGAA	0.149
CCGCCCTA	-0.304
AACAGCTA	0.0505
GAAGAGAC	-0.0477
CACAACCC	0.0423
CCATATAA	0.0704
AGCGTGCG	0.032
TAGGGACA	0.0691
AAGAAGGG	-0.129
GGAAGAAA	-0.0196
GCCAGGAC	-0.0814
AAAATATA	0.159

7 entries from above, as a markdown table:

| Sequence | PBM E-score |
| --- | --- |
| CACGCCAA | -0.0595 |
| CACGTCGG | -0.18 |
| CAATCGGA | 0.157 |
| CCTGTACG | -0.161 |
| AGTGTCGG | -0.0423 |
| CAGGCAGG | -0.124 |
| GCCCGCGC | -0.0109 |

Remaining list, next part:

Sequence	PBM E-score
AGTTTGGA	0.103
ATGCAAGG	-0.187
CCCTTTGA	-0.184
GCCGCACA	-0.0858
ATATAACC	0.188
GCAGCCCA	-0.16
AAACCTAG	-0.0706
CTATAAAG	0.113
GATTTGCC	0.067
AATCAGGT	0.148
TCAACTCA	0.107
GAGCCAAA	-0.0438
AATCTCCC	-0.0945
AAGTTCAA	0.184
AGCTACCA	-0.00498
CTGTGGCC	-0.265
AGCTGTTC	-0.0725
CAATTAAG	0.0584
AAACAGGT	-0.0623
GACCGTGA	-0.189
AAAGCAAA	0.104
CACCCATC	0.0315
CTTTGGGC	-0.0244
CAACGCTA	-0.0242
CGCAACCA	0.131

Sequence	PBM E-score
ACGAATGG	0.113
AATGCGCT	0.0643
CATTGCAG	-0.0108
CGACGGTA	0.0903
GATTTCTA	0.138
AGTTGACC	0.00402
CCAGAGAC	-0.0858
CCCAGCAA	0.0592
GCTAACCC	-0.117
ATAGCTAG	-0.0369
CGAGAGGA	0.00075
GTCAAGGA	-0.0985
AAACCTAA	0.17
GAAGAACA	0.215
ACAGGAAG	-0.102
AACGAATT	0.137
GAAGATTA	0.197
TCATCACA	0.00441
CCAACAAA	0.024
